In the supplement of paper PMC8256030:
Several values for one entry are separate records, joined by “and”; a condition that tells them apart may be missing. Identical values can stand only once. Some of the results follow. Repeats in this data set agree poorly, so a single value says little.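 HEK293T cells were given each compound shortly before transfection with a reporter in which red mCherry is followed by the SARS-CoV-2 frameshift element and then GFP in the −1 frame, so GFP appears only after frameshifting.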

Each molecule was assayed on HEK293T (assay: percent viability (nuclei count) relative to control; higher = more viable cells). Settings: 10 µM; 24 h.

**Q.** With `CC(C)NC[C@H](O)COc1cccc2ccccc12` [Propranolol S(-)] as the molecule, how does the percent viability read?
**A.** 249%

**Q.** `C=CCCCCCCCCC(=O)[O-].C=CCCCCCCCCC(=O)[O-].[Zn+2]` was tested. Which percent viability did it give?
**A.** 175%

**Q.** `C[C@]12CC[C@@H]3c4ccc(O)cc4CC[C@H]3[C@@H]1CC[C@@H]2OP(=O)(O)O` [polyestradiol phosphate] was tested. Which percent viability did it give?
**A.** 226%

**Q.** How did the percent viability turn out when `O=C(NCCN1CCN(c2ncccn2)CC1)C12CC3CC(CC(C3)C1)C2` [adatanserin] was run?
**A.** 123%

**Q.** For `CC1(S(=O)(=O)O)CC(=O)c2ccccc2C1=O` (stereo unspecified) [menadione sodium bisulfite], which percent viability is on record?
**A.** 80%

**Q.** How did the percent viability turn out when `CCC(=O)O[C@]1(C(=O)CCl)[C@@H](C)C[C@H]2[C@@H]3CCC4=CC(=O)C=C[C@]4(C)[C@@]3(F)[C@@H](O)C[C@@]21C` was run?
**A.** 240%

**Q.** `N#C/C(=C1/SCC(c2ccccc2Cl)S1)n1ccnc1` (stereo unspecified) [lanoconazole] was tested. Which percent viability did it give?
**A.** 44.1%

**Q.** For `CN=C(N)NCCCC(N)C(=O)O` (stereo unspecified), which percent viability is on record?
**A.** 209%

**Q.** `C[C@](N)(Cc1ccc(O)cc1)C(=O)O` [metirosine] was tested. Which percent viability did it give?
**A.** 195%

**Q.** How did the percent viability turn out when `CCCCOCCOCCOCc1cc2c(cc1CCC)OCO2` was run?
**A.** 340%

**Q.** `CN1C(=O)OC(C)(C)C1=O` [trimethadione] was tested. Which percent viability did it give?
**A.** 391%

**Q.** `CC1=C(/C=C/C(C)=C/C=C/C(C)=C\C(=O)O)C(C)(C)CCC1` [isotretionin] was tested. Which percent viability did it give?
**A.** 232%

**Q.** How did the percent viability turn out when `NCCNC(=O)c1ccc(Cl)cn1` [lazabemide] was run?
**A.** 263%

**Q.** For `CO/N=C(\C(=O)N[C@@H]1C(=O)N2C(C(=O)O)=C(COC(C)=O)CS[C@H]12)c1csc(N)n1` [Cefotaxime Acid], which percent viability is on record?
**A.** 199%

**Q.** How did the percent viability turn out when `CN(C)CCc1c[nH]c2ccc(C[C@H]3COC(=O)N3)cc12` [Zolmitriptan] was run?
**A.** 187%

**Q.** For `CN1N=C(C(N)=O)CCC1=O` [medazomide], which percent viability is on record?
**A.** 49.9%

**Q.** Which percent viability does the source give for `C[C@H]1[C@H](NC(=O)/C(=N\OC(C)(C)C(=O)O)c2csc(N)n2)C(=O)N1S(=O)(=O)O` [aztreonam] here?
**A.** 245%

**Q.** For `NS(=O)(=O)c1cc(C2(O)NC(=O)c3ccccc32)ccc1Cl` (stereo unspecified) [chlortalidone], which percent viability is on record?
**A.** 68.4%

**Q.** How did the percent viability turn out when `N#Cc1c(N(CC(=O)O)CC(=O)O)sc(C(=O)O)c1CC(=O)O` [ranelic acid] was run?
**A.** 349%

**Q.** `CCN1CCN(C(=O)N[C@@H](C(=O)N[C@@H]2C(=O)N3C(C(=O)O)=C(CSc4nnnn4C)CS[C@H]23)c2ccc(O)cc2)C(=O)C1=O` [Cefoperazone acid] was tested. Which percent viability did it give?
**A.** 178%

**Q.** How did the percent viability turn out when `CCC(=O)c1ccc(O)cc1` [paroxypropione] was run?
**A.** 292%

**Q.** How did the percent viability turn out when `C[C@H](O)[C@H](O)[C@H]1CNc2nc(N)[nH]c(=O)c2N1` [Sapropterin] was run?
**A.** 234%

**Q.** With `CC(C)(Oc1ccc(Cl)cc1)C(=O)O` [calcium clofibrate] as the molecule, how does the percent viability read?
**A.** 219%

**Q.** `CC(C)[C@H]1CC[C@H](C(=O)N[C@H](Cc2ccccc2)C(=O)O)CC1` [Nateglinide] was tested. Which percent viability did it give?
**A.** 155%

**Q.** Which percent viability does the source give for `CC1(C)S[C@@H]2[C@H](NC(=O)[C@H](NC(=O)N3CCNC3=O)c3ccccc3)C(=O)N2[C@H]1C(=O)O` [azlocillin] here?
**A.** 125%

**Q.** Which percent viability does the source give for `CC(C)C(=O)c1c(C(C)C)nn2ccccc12` [ibudilast] here?
**A.** 283%

**Q.** `CCC(=O)O[C@@H]1CC(=O)O[C@H](C)C/C=C/C=C/[C@H](O)[C@H](C)C[C@H](CC=O)[C@H](O[C@@H]2O[C@H](C)[C@@H](O[C@H]3C[C@@](C)(O)[C@@H](OC(=O)CC)[C@H](C)O3)[C@H](N(C)C)[C@H]2O)[C@H]1OC` [midecamycin] was tested. Which percent viability did it give?
**A.** 229%

**Q.** For `CCC[C@H](N[C@@H](C)C(=O)N1[C@H](C(=O)O)C[C@@H]2CCCC[C@@H]21)C(=O)O` [perindoprilat], which percent viability is on record?
**A.** 75.1%

**Q.** With `NC(=NCCCCCCN=C(N)N=C(N)Nc1ccc(Cl)cc1)N=C(N)Nc1ccc(Cl)cc1` as the molecule, how does the percent viability read?
**A.** 220%

**Q.** `CCN(CC)CCNC(=O)c1cc(Cl)c(N)cc1OC` [metoclopramide] was tested. Which percent viability did it give?
**A.** 115% and 246%

**Q.** For `CC(C(=O)O)c1ccc(C(=O)c2ccccc2)s1` (stereo unspecified) [tiaprofenic acid], which percent viability is on record?
**A.** 187%

**Q.** Which percent viability does the source give for `CC(=O)O[C@]1(C(C)=O)CC[C@H]2[C@@H]3C=C(C)C4=CC(=O)CC[C@]4(C)[C@H]3CC[C@@]21C` [Megestrol acetate] here?
**A.** 448%

**Q.** Which percent viability does the source give for `O=C(O)CSCC(=O)NC1CCSC1=O` (stereo unspecified) [erdosteine] here?
**A.** 181%

**Q.** Which percent viability does the source give for `C[C@H]1C[C@H]2[C@@H]3CCC4=CC(=O)C=C[C@]4(C)[C@H]3C(=O)C[C@]2(C)[C@@]1(O)C(=O)CO` [meprednisone] here?
**A.** 137%

**Q.** For `COc1c2occc2c(OC)c2c(=O)cc(C)oc12` [khellin], which percent viability is on record?
**A.** 270%

**Q.** With `O=C([O-])c1ccccc1[O-].[Bi+3].[OH-]` as the molecule, how does the percent viability read?
**A.** 94.1%
